This series addresses T1, GST-DRG9Nip (Oryza sativa ssp. japonica cv. Nipponbare) (UniProt Q69P58).
T1 sequence (looked up, limits assumed): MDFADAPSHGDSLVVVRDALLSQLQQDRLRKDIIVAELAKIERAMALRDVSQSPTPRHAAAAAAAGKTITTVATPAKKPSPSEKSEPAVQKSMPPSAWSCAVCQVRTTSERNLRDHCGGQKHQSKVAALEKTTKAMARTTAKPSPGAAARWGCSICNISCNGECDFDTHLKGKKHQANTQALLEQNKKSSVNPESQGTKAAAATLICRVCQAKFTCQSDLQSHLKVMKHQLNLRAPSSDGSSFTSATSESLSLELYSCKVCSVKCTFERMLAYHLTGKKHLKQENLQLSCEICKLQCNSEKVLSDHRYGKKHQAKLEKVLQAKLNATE
The experiment in a line: EMSA. Conditions: 20 mM Hepes pH 7.5, 1 mM MgCl2, 10 mM ZnCl2, 5 mM DTT, 10% glycerol, 0.1% NP-40, room temperature, 1 h; 6% native PAGE, 0.5x TBE; recombinant protein; protein details: N-terminal GST (pGEX4t-1); label: 5'-FAM.

Data on one sequence can be found in paper PMC10957929.

For at least one entry, the source does not settle the construct or the ends of the probe. At least one verdict was read from the data and is not stated in words by the source. Tags and fusion partners may be left off the protein sequences shown.

“GGGCACUCUUCCGUGGUCUGGUGGAAUUCCGUCAGACAACGGGGGAGCGCUCCUUUU [T57A RNA]”: the binding result is recorded as “binds”.
